Data published in paper PMC8782181.
No constants are given. Whether binding was seen depends on the method and setting. Binding seen in cells or lysates may run through a third protein. These calls come from enrichment with a bait or labelling near it, and not all partners need be listed.

The chains behind the UniProt entries cited, without tags or fusion partners.
UniProt P53297: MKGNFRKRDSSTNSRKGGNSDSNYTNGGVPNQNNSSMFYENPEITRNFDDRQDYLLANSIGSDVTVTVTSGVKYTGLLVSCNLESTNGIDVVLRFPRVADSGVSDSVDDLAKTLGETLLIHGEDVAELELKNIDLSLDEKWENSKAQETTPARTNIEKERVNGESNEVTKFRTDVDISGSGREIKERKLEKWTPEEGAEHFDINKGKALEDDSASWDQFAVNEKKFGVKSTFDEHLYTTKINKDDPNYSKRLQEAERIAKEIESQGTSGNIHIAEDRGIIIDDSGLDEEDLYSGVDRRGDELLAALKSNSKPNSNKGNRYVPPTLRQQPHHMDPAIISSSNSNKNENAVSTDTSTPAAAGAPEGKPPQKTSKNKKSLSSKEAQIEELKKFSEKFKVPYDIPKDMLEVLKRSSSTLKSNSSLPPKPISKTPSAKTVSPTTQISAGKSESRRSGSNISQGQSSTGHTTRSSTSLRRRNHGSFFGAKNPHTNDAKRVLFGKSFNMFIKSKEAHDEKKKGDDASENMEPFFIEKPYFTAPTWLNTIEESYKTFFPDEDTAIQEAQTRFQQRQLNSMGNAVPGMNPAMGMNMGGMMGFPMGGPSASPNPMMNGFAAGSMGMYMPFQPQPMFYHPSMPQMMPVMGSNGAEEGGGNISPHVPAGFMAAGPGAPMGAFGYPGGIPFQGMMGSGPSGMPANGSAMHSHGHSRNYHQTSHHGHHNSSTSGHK

B1: Dcp2 (protein, UniProt P53550 1-970)
chain: MSLPLRHALENVTSVDRILEDLLVRFIINCPNEDLSSVERELFHFEEASWFYTDFIKLMNPTLPSLKIKSFAQLIIKLCPLVWKWDIRVDEALQQFSKYKKSIPVRGAAIFNENLSKILLVQGTESDSWSFPRGKISKDENDIDCCIREVKEEIGFDLTDYIDDNQFIERNIQGKNYKIFLISGVSEVFNFKPQVRNEIDKIEWFDFKKISKTMYKSNIKYYLINSMMRPLSMWLRHQRQIKNEDQLKSYAEEQLKLLLGITKEEQIDPGRELLNMLHTAVQANSNNNAVSNGQVPSSQELQHLKEQSGEHNQQKDQQSSFSSQQQPSIFPSLSEPFANNKNVIPPTMPMANVFMSNPQLFATMNGQPFAPFPFMLPLTNNSNSANPIPTPVPPNFNAPPNPMAFGVPNMHNLSGPAVSQPFSLPPAPLPRDSGYSSSSPGQLLDILNSKKPDSNVQSSKKPKLKILQRGTDLNSIKQNNNDETAHSNSQALLDLLKKPTSSQKIHASKPDTSFLPNDSVSGIQDAEYEDFESSSDEEVETARDERNSLNVDIGVNVMPSEKDSRRSQKEKPRNDASKTNLNASAESNSVEWGPGKSSPSTQSKQNSSVGMQNKYRQEIHIGDSDAYEVFESSSDEEDGKKLEELEQTQDNSKLISQDILKENNFQDGEVPHRDMPTESNKSINETVGLSSTTNTVKKVPKVKILKRGETFASLANDKKAFDSSSNVSSSKDLLQMLRNPISSTVSSNQQSPKSQHLSGDEEIMMMLKRNSVSKPQNSEENASTSSINDANASELLGMLKQKEKDITAPKQPYNVDSYSQKNSAKGLLNILKKNDSTGYPRTEGGPSSEMSTSMKRNDATNNQELDKNSTELLNYLKPKPLNDGYENISNKDSSHELLNILHGNKNSSAFNNNVYATDGYSLASDNNENSSNKLLNMLQNRSSAINEPNFDVRSNGTSGSNELLSILHRK
B2: Ecm32 (protein, UniProt P32644 1-1121)
chain: MDFQCRTCSQAYDAEQMMKHLSSTRHKTVFDTSNDEDICCEECQDKNIHQLQIIRFGGEDMVLLCNSCFRKEYSETERPSTSYSLQNGSILKFWEKYVKVRECCCDECGEESNLNANRNGEVLCDKCLPKSNRAKDFVSEKSGRFLYIYLGLNETQNSTRKPRKKGGRRVGRGKKGRKGAKIKKEKKETFEAKISRIAYEVKKENSTIQSSSSSNLRNFKGFKAVESDPVVAAKVSKSETSRSNPGPSNRNKGKGNKANHKKNSGNGIGKEKERKTNIRNNVRNSQPIPEDRKNTNSHVTTNSGGKGKNESVDKHQLPQPKALNGNGSGSTNTTGLKKGKKDHAGQKTKGNDKTGNKNPREAKLNSAGRKNALGKKSNNQPNKGTSRWTIGSDTESSREPSISPNENTTSITKSRNRNKKASKPTLNEKSKTTTMPKKLETKNQEKNNGKTKDGKLIYEEGEPLTRYNTFKSTLSYPDLNTYLNDYSFALFLEQKLENEFVQNFNILWPRNEKDTAFIINVEKNNNSELEKLLPANLLALGRPAFNERQPFFFCTQDEQKVWYIFIKELSIQRGKYVLLVELFSWNNLSLPTKNGSSQFKLLPTSAQTSRILFAMTRITNPKFIDLLLGQKPIKEIYFDNRLKFSSDKLNRSQKTAVEHVLNNSITILQGPPGTGKTSTIEEIIIQVIERFHAFPILCVAASNIAIDNIAEKIMENRPQIKILRILSKKKEQQYSDDHPLGEICLHNIVYKNLSPDMQVVANKTRRGEMISKSEDTKFYKEKNRVTNKVVSQSQIIFTTNIAAGGRELKVIKECPVVIMDEATQSSEASTLVPLSLPGIRNFVFVGDEKQLSSFSNIPQLETSLFERVLSNGTYKNPLMLDTQYRMHPKISEFPIKKIYNGELKDGVTDEQKAWPGVQHPLFFYQCDLGPESRVRSTQRDIVGFTYENKHECVEIVKIIQILMLDKKVPLEEIGVITPYSAQRDLLSDILTKNVVINPKQISMQQEYDEIELFNAAGSQGTAGSLQNNVINIINGLHVATVDSFQGHEKSFIIFSCVRNNTENKIGFLRDKRRLNVALTRAKHGLIVVGNKNVLRKGDPLWKDYITYLEEQEVIFTDLTAY
B3: Bre5 (protein, UniProt P53741 1-515)
chain: MGVTVQDICFAFLQNYYERMRTDPSKLAYFYASTAELTHTNYQSKSTNEKDDVLPTVKVTGRENINKFFSRNDAKVRSLKLKLDTIDFQYTGHLHKSILIMATGEMFWTGTPVYKFCQTFILLPSSNGSTFDITNDIIRFISNSFKPYVLTDASLSQSNEENSVSAVEEDKIRHESGVEKEKEKEKSPEISKPKAKKETVKDTTAPTESSTQEKPIVDHSQPRAIPVTKESKIHTETVPSSTKGNHKQDEVSTEELGNVTKLNEKSHKAEKKAAPIKTKEGSVEAINAVNNSSLPNGKEVSDEKPVPGGVKEAETEIKPIEPQVSDAKESGNNASTPSSSPEPVANPPKMTWASKLMNENSDRISKNNTTVEYIRPETLPKKPTERKFEMGNRRDNASANSKNKKKPVFSTVNKDGFYPIYIRGTNGLREEKLRSALEKEFGKVMRITAADNFAVVDFETQKSQIDALEKKKKSIDGIEVCLERKTVKKPTSNNPPGIFTNGTRSHRKQPLKRKD
B4: Bfr1 (protein, UniProt P38934 1-470)
chain: MSSQQHKFKRPDVSVRDKKLDTLNVQLKKIDTEIGLIRKQIDQHQVNDTTQQERKKLQDKNKEIIKIQADLKTRRSNIHDSIKQLDAQIKRKNNQIEEKLGKKAKFSSTAEAKQRINEIEESIASGDLSLVQEKLLVKEMQSLNKLIKDLVNIEPIRKSVDADKAKINQLKEELNGLNPKDVSNQFEENQQKLNDIHSKTQGVYDKRQTLFNKRAALYKKRDELYSQIRQIRADFDNEFKSFRAKLDKERLKREEEQRLSKLLEQKDVDMGKLQEKLTHAKIPAFTYEIGAIENSLLVLDPTYVKPKKNILPDLSSNALETKPARKVVADDLVLVTPKKDDFVNVAPSKSKKYKKKNQQKNTENEQPASIFNKVDGKFTLEPTLIATLAELDVTVPINSDDVKITVEQLKKKHEELLSKQEEQTKQNIESVEKEIEKLNLDYSNKEQQVKKELEEKRLKEQEESEKDKEN
B5: Cop1 (protein, UniProt P53622 1-1201)
chain: MKMLTKFESKSTRAKGIAFHPSRPWVLVALFSSTIQLWDYRMGTLLHRFEDHEGPVRGLDFHPTQPIFVSAGDDYTIKVWSLDTNKCLYTLTGHLDYVRTVFFHRELPWIISASDDQTIRIWNWQNRKEIACLTGHNHFVMCAQFHPTDDLIVSASLDETIRIWDISGLRKRHSAPGTSSFEEQMSAQQNLLDGSLGDCVVKFILEGHTRGVNWASFHPTLPLIVSGSDDRQVKLWRMSATKAWEVDTCRGHTNNVDSVIFHPHQNLIISVGEDKTLRVWDLDKRTPVKQFKRENDRFWLIAAHPHINLFGAAHDSGIMVFKLDRERPCSFIHQNQLFFVNAEKQIQSFNFQKRVASLPYASLKGIGQPWDAFRSISYNPSQHSVLVNEANGKFALVILPKQPVGAVEPTSVTQDTGNFATFVGRNRFVVYNKNTESVEVRSLENKVTRNIKVEETVRTIVAAGPGSVLVIHPREVILYDVQQGKKVSQLAVKNVKYVSWSLDGQYVALMSKHTITLATKKLELINSMHETIRIKSAAWDETGVLIYSTLNHIRYSLLNGDRGIIKTLEKTLYITKVQGKLVYCLNREGEIEILTIDPTEYRFKKALVNKNFPEVLRLIKDSNLVGQNIISYLQKSGYPEIALQFVQDPHIRFDLALEYGNLDVALDEAKKLNDSSTWERLIQEALAQGNASLAEMIYQTQHSFDKLSFLYLVTGDVNKLSKMQNIAQTREDFGSMLLNTFYNNSTKERSSIFAEGGSLPLAYAVAKANGDEAAASAFLEQAEVDEQDVTLPDQMDASNFVQRPVISKPLEKWPLKEAELSYFEKAVLGQIDDLTIDDETPAVNTTQEQEEPLGEENFNDEDIGEDEGAWDLGDEDLDVGEELPEEVEQGEITSPAQEVETAIWIKNSKLPAVLVAAGAFDAAVQALSKQVGVVKLEPLKKYFTNIYEGCRTYIPSTPCELPAQLGYVRAYDDTVSEDQILPYVPGLDVVNEKMNEGYKNFKLNKPDIAIECFREAIYRITLLMVDDAEDEKLAHKILETAREYILGLSIELERRSLKEGNTVRMLELAAYFTKAKLSPIHRTNALQVAMSQHFKHKNFLQASYFAGEFLKIISSGPRAEQARKIKNKADSMASDAIPIDFDPYAKFDICAATYKPIYEDTPSVSDPLTGSKYVITEKDKIDRIAMISKIGAPASGLRIRV
B6: Ecm33 (protein, UniProt P38248 20-406)
chain: ANSTTSIPSSCSIGTSATATAQADLDKISGCSTIVGNLTITGDLGSAALASIQEIDGSLTIFNSSSLSSFSADSIKKITGDLNMQELIILTSASFGSLQEVDSINMVTLPAISTFSTDLQNANNIIVSDTTLESVEGFSTLKKVNVFNINNNRYLNSFQSSLESVSDSLQFSSNGDNTTLAFDNLVWANNITLRDVNSISFGSLQTVNASLGFINNTLPSLNLTQLSKVGQSLSIVSNDELSKAAFSNLTTVGGGFIIANNTQLKVIDGFNKVQTVGGAIEVTGNFSTLDLSSLKSVRGGANFDSSSSNFSCNALKKLQSNGAIQGDSFVCKNGATSTSVKLSSTSTESSKSSATSSASSSGDASNAQANVSASASSSSSSSKKSKG
B7: Coy1 (protein, UniProt P34237 1-679)
chain: MDTSVYSHALDIWAKADLTNLQRELDADVIEIKDKETLSLNSRKSLATETKKFKKLEPEEKLNNVNKIIKQYQREIDNLTQRSKFSEKVLFDVYEKLSEAPDPQPLLQSSLEKLGKIDDSKELKEKISYLEDKLAKYADYETLKSRLLDLEQSSAKTLAKRLTAKTQEINSTWEEKGRNWKEREADLLKQLTNVQEQNKALEAKISKNIDIEGNGNEDGDQENNQKEVSTRIAEYNLVTQELETTQARIYQLEKRNEELSGALAKATSEAEKETELHAKELKLNQLESENALLSASYEQERKSTSHAINELKEQLNSVVAESESYKSELETVRRKLNNYSDYNKIKEELSALKKIEFGVNEDDSDNDIRSEDKNDNTFESSLLSANKKLQATLAEYRSKSTAQEEERNELKKSVDQLKQQIATLKEANEKLETDLEKVENVSPHFNETASMMSGVTRQMNNRTSHKMSPTSSIIGIPEDGELSGNQSTILPIVTKQRDRFRSRNMDLEKQLRQGNSEKGKLKLEISKLKGDNTKLYERIRYLQSYNNNNAPVNQSTERIDVESQYSRVYDESLHPMANFRQNELNHYKNKKLSALEKLFSSFAKVILQNKMTRMVFLFYCIGLHGLVFMMSMYVINISGYMTPEVGIVQSAKSSSNLNGGLGGAEKVAAGVGSVHGINR

These binders were tested against Pbp1-myc (S. cerevisiae) (UniProt P53297) (assay: affinity purification with mass spectrometry; cells unstressed or glucose-depleted (10 min for Dcp1-myc, 60 min for Pbp1-myc), cross-linked with 0.8% formaldehyde; 20,000 g pellet of the lysate in Blob100 buffer (20 mM Tris-HCl pH 8, 100 mM NaCl, 1 mM MgCl2, 0.5% NP40) on anti-c-Myc magnetic beads, eluted with Myc peptide; label-free LC-MS/MS; hits are the proteins that cluster (Mfuzz) with the tagged bait across IP, pellet, supernatant, total and unbound fractions).

binding, binds:
B1, B2, B3, B4, B5, B6, B7
